From the supplement of paper PMC5770031
Some of the results follow. Single values are uncertain here, since repeats match poorly.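 Flies heterozygous for the ATM8 allele over a balancer chromosome carrying normal ATM were mated with each other on treated food. Parents laid eggs for 5–6 days and the young then developed for about 12 days, so both parents and larvae ate the compound. The read-out is the share of all emerged adults that carry two ATM8 copies, compared with 2% DMSO control vials. The paper called compounds neutral at 10–20% such offspring, harmful below 10%, and helpful above 20%.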 Numbered stars: 1 amine (or outer) side, 2 acyl side, 3 side chain; on linkers, the order of the positions; unused ones are H or OH. Bridge positions count the residues as written; N and C are the ends. Square brackets hold non-standard residues; d marks the D form. Peptide text beside a SMILES is read from it. I, II: the chains in the order shown. Actinocin(9to1) = Cc1c2oc3c(C)ccc(C(=O)[*:1])c3nc-2c(C(=O)[*:2])c(N)c1=O; NMeV = CN[C@H](C(=O)O)C(C)C; Sar = CNCC(=O)O

The compounds below were run on Drosophila melanogaster ATM8 (temperature-sensitive ATM allele) (assay: fraction of eclosed F1 progeny that are homozygous ATM8 (rescue of developmental lethality); higher = more rescue of ATM8 developmental lethality; extreme values may be limits of the assay). Details: compound concentration applied to food 0.2 mM; 21 °C.

Structure (SMILES)	fraction of eclosed F1 progeny that are homozygous ATM8
CCOC(=O)c1ccc(O)cc1	0.154
COc1ccc2cc1Oc1ccc(cc1)C[C@H]1c3c(cc4c(c3Oc3cc5c(cc3OC)CCN(C)[C@@H]5C2)OCO4)CCN1C	0.114
CC(O)CC(C)(C)O (stereo not drawn)	0.109
O=C(O)c1ccccc1Nc1cccc(OCc2ccc3ccccc3n2)c1	0.0833
COC1=C(OC)C(=O)C(C/C=C(\C)CC/C=C(\C)CC/C=C(\C)CC/C=C(\C)CC/C=C(\C)CC/C=C(\C)CC/C=C(\C)CC/C=C(\C)CC/C=C(\C)CCC=C(C)C)=C(C)C1=O	0.25
Cn1c(=O)c2[nH]c(Br)nc2n(C)c1=O	0.174
OCC(O)CN1CCN(c2ccccc2)CC1 (stereo not drawn)	0.214
COc1cc2c(cc1OC)C(=O)OC2	0.121
c1ccc2c(c1)OCC(C1=NCCN1)O2 (stereo not drawn)	0.0588
COc1cc(N)c(Cl)cc1C(=O)NC1CCN(CCCOc2ccc(F)cc2)CC1OC (stereo not drawn)	0.0541
COC1=CC(=O)C[C@@H](C)[C@]12Oc1c(Cl)c(OC)cc(OC)c1C2=O	0.176
CC[C@H](/C=C/[C@@H](C)[C@H]1CC[C@H]2[C@@H]3CCC4=CC(=O)CC[C@]4(C)[C@H]3CC[C@]12C)C(C)C	0.293
COc1c2c(cc3occ(-c4ccc5c(c4)OCO5)c(=O)c13)OC(C)(C)C=C2	0.0316
N#Cc1c(Cl)c(Cl)c(Cl)c(C#N)c1Cl	0.0357
COc1ccc(-c2coc3cc(O)cc(O)c3c2=O)cc1	0.0244
CCCC(CCC)C(=O)O	0.136
Cc1onc(-c2ccccc2)c1C(=O)N[C@@H]1C(=O)N2[C@@H]1SC(C)(C)[C@@H]2C(=O)O	0.196
Cc1cc(CC(C)CC(C)(C)C)n(O)c(=O)c1 (stereo not drawn)	0.104
COc1c(OC)c2occc2c2oc(=O)ccc12	0.0541
CCCC(C(=O)OCCN(CC)CC)(c1ccccc1)c1ccccc1	0.0476
CN1CCC[C@H]1c1cccnc1	0.0702
O=S(=O)(O)CCSSCCS(=O)(=O)O	0.104
CO/N=C1\CN(c2nc3c(cc2F)c(=O)c(C(=O)O)cn3C2CC2)CC1CN (stereo not drawn)	0.0513
N[C@H](CO)Cc1ccccc1	0
Clc1ccccc1C(c1ccccc1)(c1ccccc1)n1ccnc1	0.0345

Structure (SMILES)	fraction of eclosed F1 progeny that are homozygous ATM8
NC(=O)NO	0.179
Clc1ccc(COC(Cn2ccnc2)c2ccc(Cl)cc2Cl)cc1 (stereo not drawn)	0.147
C[C@H](CCC(=O)NCC(=O)O)[C@H]1CC[C@H]2[C@@H]3[C@H](O)C[C@@H]4C[C@H](O)CC[C@]4(C)[C@H]3C[C@H](O)[C@]12C	0.061
Oc1cc(O)c2c(c1)O[C@H](c1cc(O)c(O)c(O)c1)[C@H](O)[C@H]2c1c(O)cc(O)c2c1O[C@H](c1cc(O)c(O)c(O)c1)[C@H](O)[C@H]2c1c(O)cc(O)c2c1O[C@H](c1cc(O)c(O)c(O)c1)[C@H](O)C2	0.0645
CC[C@]1(O)C[C@@H]2CN(CCc3c([nH]c4ccccc34)[C@@](C(=O)OC)(c3cc4c(cc3OC)N(C)[C@H]3[C@@](O)(C(=O)OC)[C@H](OC(C)=O)[C@]5(CC)C=CCN6CC[C@]43[C@@H]65)C2)C1	0.261
CC(CCc1ccc(O)cc1)NCC(O)c1ccc(O)cc1 (stereo not drawn)	0.0345
CC(=O)[C@H]1CC[C@H]2[C@@H]3CC=C4C[C@@H](OC(=O)CCC(=O)O)CC[C@]4(C)[C@H]3CC[C@]12C	0.0345
CCCCC(CC)COC(=O)c1ccccc1O (stereo not drawn)	0.0741
C=C1CC=C(C)CC[C@@H]2[C@@H]1CC2(C)C	0.167
CCN(CCCc1ccccc1)CCCc1ccccc1	0.0606
COc1ccc(-n2nc(CCC(=O)N(C)O)cc2-c2ccc(Cl)cc2)cc1	0.321
O=P(O)(O)C(O)(Cc1cccnc1)P(=O)(O)O	0.157
O=C(O)c1cc(O)c(O)c(O)c1	0.163
CCN(CC)C(=O)N1CCN(C)CC1	0.0238
Cc1[nH]c2ccccc2c1CN(C)C	0.255
CN(C)CCC(c1ccccc1)c1ccccn1 (stereo not drawn)	0.192
C=CC(C1=CC(=O)C(OC)=CC1=O)c1ccc(O)cc1 (stereo not drawn)	0.222
Nc1ccn([C@@H]2O[C@H](CO)[C@@H](O)[C@H]2O)c(=O)n1	0.0645
O=C(O)/C=C/C=C/c1ccc2c(c1)OCO2	0.312
CC(C)CCC[C@@H](C)[C@H]1CC[C@H]2[C@@H]3CC=C4C[C@@H](O)CC[C@]4(C)[C@H]3CC[C@]12C	0.25
O=C(/C=C/c1ccc(O)cc1)c1ccccc1	0.184
Cc1nccc2c1[nH]c1cc(O)ccc12	0.186
CC(=O)c1ccc2c(c1)N(CCCN1CCN(CCO)CC1)c1ccccc1S2	0.3
O=C(O)c1cc(=O)c2c(OCC(O)COc3cccc4oc(C(=O)O)cc(=O)c34)cccc2o1	0
O=c1c(O)c(-c2ccccc2)oc2cc(O)cc(O)c12	0.0682

Structure (SMILES)	fraction of eclosed F1 progeny that are homozygous ATM8
COc1ccc(-c2coc3cc(O)cc(OC)c3c2=O)cc1	0.0408
CC(=O)OC(C)C[N+](C)(C)C (stereo not drawn)	0.111
CCCCOc1ccc(CC(=O)NO)cc1	0.135
CC(C)c1cccc(C(C)C)c1O	0.2
C=CCc1ccccc1OCC(O)CNC(C)C (stereo not drawn)	0.0816
Oc1c(Cl)cc(Cl)cc1Sc1cc(Cl)cc(Cl)c1O	0.103
COc1ccc2nc3cc(Cl)ccc3c(Nc3cc(CN4CCCC4)c(O)c(CN4CCCC4)c3)c2n1	0.167
CC(C)c1cc2c(c(O)c1O)[C@@]1(C(=O)O)CCCC(C)(C)[C@@H]1CC2	0.093
Nc1nc(=O)c2c([nH]1)NCC(CNc1ccc(C(=O)N[C@@H](CCC(=O)O)C(=O)O)cc1)N2C=O (stereo partly drawn)	0.0606
COc1ccc2c(c1)OCC(Cc1ccc(OC)c(OC)c1)C2=O (stereo not drawn)	0.231
CCC(C)(C)c1ccc(CC(C)CN2C[C@@H](C)O[C@@H](C)C2)cc1 (stereo partly drawn)	0
O=C(O)CC[N+](=O)[O-]	0.211
COc1ccc([C@H]2Oc3cc(OC)cc(OC)c3C[C@H]2O)cc1	0.0882
COC1=CC(=O)O[C@@H](/C=C/c2ccccc2)C1	0.171
CC[C@]12CCCN3CCc4c(n(c5ccccc45)[C@@](O)(C(=O)OC)C1)[C@@H]32	0.0556
Oc1ccc2c3c1O[C@H]1[C@@H](O)CC[C@@]4(O)[C@@H](C2)N(CC2CCC2)CC[C@]314	0.05
CC(CCc1ccc(O)cc1)NCCc1ccc(O)c(O)c1 (stereo not drawn)	0.2
O=c1cc(-c2ccccc2)oc2ccc(O)cc12	0.123
CCOc1nc2cccc(C(=O)OC(C)OC(=O)OC3CCCCC3)c2n1Cc1ccc(-c2ccccc2-c2nn[nH]n2)cc1 (stereo not drawn)	0.359
CN1CCc2cc3c(cc2[C@H]1[C@@H]1OC(=O)c2c1ccc1c2OCO1)OCO3	0.214
COC(=O)/C=C/c1ccc(O)c(O)c1	0.22
Nc1ccc(S(N)(=O)=O)cc1	0.1
Nc1ncnc2c1ncn2[C@H]1C[C@H](O)[C@@H](CO)O1	0.258
COc1cc(C)c2c(=O)cc(-c3ccccc3)oc2c1	0.125
CC(C)(Oc1ccc(C2CC2(Cl)Cl)cc1)C(=O)O (stereo not drawn)	0.225

Structure (SMILES)	fraction of eclosed F1 progeny that are homozygous ATM8
CC1=C(C(=O)O)N2C(=O)[C@@H](NC(=O)[C@H](N)c3ccc(O)cc3)[C@H]2SC1	0.0526
CC1=CCCC(C)=CCC(C)(C)C=CC1 [HUMULENE (alpha)]	0.143
O=C1C2CC=CCC2C(=O)N1SC(Cl)(Cl)Cl (stereo not drawn)	0.116
COC1=CC(OC)=C(C)C(=O)C1=O	0.0213
CCCCCCCCCCCCCCCC[N+](C)(C)C	0.233
NC(=O)C1(N2CCCCC2)CCN(CCCC(=O)c2ccc(F)cc2)CC1	0.0423
CNC1(C)C2CCC(C2)C1(C)C (stereo not drawn)	0.111
C=C(NC(=O)C(=C)NC(=O)c1csc(C2=N[C@@H]3c4csc(n4)[C@H]4NC(=O)c5csc(n5)[C@H]([C@](C)(O)[C@@H](C)O)NC(=O)[C@H]5CSC(=N5)/C(=C/C)NC(=O)[C@H]([C@@H](C)O)NC(=O)c5csc(n5)[C@]3(CC2)NC(=O)[C@H](C)NC(=O)C(=C)NC(=O)[C@H](C)NC(=O)[C@H]([C@@H](C)CC)N[C@@H]2C=Cc3c([C@H](C)O)cc(nc3[C@H]2O)C(=O)O[C@@H]4C)n1)C(N)=O	0.25
C[C@@H]1CC2C3C[C@H](F)C4=CC(=O)C=C[C@]4(C)[C@@]3(F)[C@@H](O)C[C@]2(C)[C@@]1(O)C(=O)COC(=O)C(C)(C)C (stereo partly drawn)	0.234
O=C(O)CCc1nc2ccccc2[nH]1	0.286
CN1C[C@H](CNC(=O)OCc2ccccc2)C[C@@H]2c3cccc4c3c(cn4C)C[C@H]21	0.13
Nc1nccs1	0.0541
NC(=O)c1cccnc1	0.138
CCCc1nc(C(C)(C)O)c(C(=O)OCc2oc(=O)oc2C)n1Cc1ccc(-c2ccccc2-c2nnn[nH]2)cc1	0.184
Cn1c(=O)c2c(ncn2CC(O)CO)n(C)c1=O (stereo not drawn)	0.0769
NC(=O)c1cc[n+](CC2=C(C(=O)[O-])N3C(=O)[C@@H](NC(=O)Cc4cccs4)[C@H]3SC2)cc1	0.125
Cc1nccn1CC1CCc2c(c3ccccc3n2C)C1=O (stereo not drawn)	0.05
O=C1C(O)=C(O)C(=O)C(O)=C1O	0.0909
COc1ccc2c(c1)c(CC(=O)OCC(=O)O)c(C)n2C(=O)c1ccc(Cl)cc1	0.135
Cc1c2oc3c(C)ccc(C(=O)N[C@@H]4C(=O)N[C@H](C(C)C)C(=O)N5CCC[C@H]5C(=O)N(C)CC(=O)N(C)[C@@H](C(C)C)C(=O)O[C@@H]4C)c3nc-2c(C(=O)N[C@@H]2C(=O)N[C@H](C(C)C)C(=O)N3CCC[C@H]3C(=O)N(C)CC(=O)N(C)[C@@H](C(C)C)C(=O)O[C@@H]2C)c(N)c1=O (I: T[dV]P[Sar][NMeV] / II: T[dV]P[Sar][NMeV]; ester I:1-I:C, II:1-II:C; linker I:N-II:N via Actinocin(9to1))	0
O=C(O)CF	0.25
COc1ccc2c(c1)OC[C@@H](Cc1ccc(OC)c(OC)c1)[C@@H]2O	0.167
CC1(C)C(=O)[C@@H]2O[C@@H]2[C@@]2(C)C1C[C@@H](O)[C@]1(C)C2CC[C@@]2(C)[C@H](c3ccoc3)OC(=O)C3OC321 (stereo partly drawn) [1,2alpha-EPOXYDEACETOXYDIHYDROGEDUNIN]	0.17

Ordered by count of non-hydrogen atoms (high to low): 6 of the compounds above
Structure (SMILES)	fraction of eclosed F1 progeny that are homozygous ATM8
CCCc1nc(C(C)(C)O)c(C(=O)OCc2oc(=O)oc2C)n1Cc1ccc(-c2ccccc2-c2nnn[nH]2)cc1	0.184
C[C@@H]1CC2C3C[C@H](F)C4=CC(=O)C=C[C@]4(C)[C@@]3(F)[C@@H](O)C[C@]2(C)[C@@]1(O)C(=O)COC(=O)C(C)(C)C (stereo partly drawn)	0.234
CC1(C)C(=O)[C@@H]2O[C@@H]2[C@@]2(C)C1C[C@@H](O)[C@]1(C)C2CC[C@@]2(C)[C@H](c3ccoc3)OC(=O)C3OC321 (stereo partly drawn) [1,2alpha-EPOXYDEACETOXYDIHYDROGEDUNIN]	0.17
COc1ccc2c(c1)c(CC(=O)OCC(=O)O)c(C)n2C(=O)c1ccc(Cl)cc1	0.135
CCCCCCCCCCCCCCCC[N+](C)(C)C	0.233
O=C(O)CCc1nc2ccccc2[nH]1	0.286
